Source: patent US10869904B2, “Pharmaceutical composition for preventing or treating respiratory disease comprising extract of Justicia procumbens L” (DONG WHA PHARM. CO., LTD., priority 2016, dated 2020)
For at least one compound, name, drawing or mass did not settle the structure.

Key:
IL4 = experiment: Inhibition of IL4 secretion by Concanavalin A-treated splenocytes (ELISA); type: cell-based, Balb/c mice; details: text on Tables 7 and 8
Method: (§1) The isolated splenocytes were diluted in RPMI medium (containing 10% fetal bovine serum (FBS) and antibiotics (100 U/mL penicillin and 100 μg/mL streptomycin)) at a concentration of 5×10^6 cells/nit, and the cell dilution was dispended in a 24-well plate in an amount of 500 μl/well and in a 96-well plate in an amount of 100 μl/well. The plates were incubated in a 5% CO2 incubator at 37° C. for 48 hours. […] The medium of the 24-well plate was used to measure the degree of secretion of Th2 inflammatory cytokines (IL4 and IL5), and the 96-well plate was used to measure the degree of cell proliferation. First, in order to measure Th2 cytokines, the medium in the 24-well plate was collected and centrifuged at 800×g for 5 minutes, and the supernatant was collected. […] In order to measure the degree of cell proliferation, […] of CCK8 (cell counting kit 8, Donjindo) solution was added to each well of the 96-well plate, and after 4 hours, the absorbance value was measured. The degree of inhibition of spleen cell proliferation by each drug and the degree of inhibition of Th2 cytokine secretion by each drug were calculated using Equation 2 below. […] Using this linear equation, the concentrations of drugs administered alone, which correspond to inhibition achieved when administered in combination, were calculated, and combination index (CI) was calculated using Equation 3 below. […]

IL5 = experiment: Inhibition of IL5 secretion by Concanavalin A-treated splenocytes (ELISA); type: cell-based, Balb/c mice; details: text on Tables 7 and 8
Method: as §1

Compound: CC(C)(O)c1ccccc1CC[C@@H](SCC1(CC(=O)O)CC1)c1cccc(/C=C/c2ccc3ccc(Cl)cc3n2)c1 [Montelukast, montelukast]
- inhibition of IL4 secretion (in words) (IL4): did not show the effect of inhibiting IL4 secretion
- inhibition of IL5 secretion (in words) (IL5): showed only the effect of inhibiting IL5 secretion
